Assay results as given in patent publication US9029097.
No constants are given. Whether binding was seen depends on the method and setting. Some binding calls cover weakened binding; strength is not graded here.

Chains of the proteins cited; added tags and fusions are not shown. Lines headed by an entry give the natural chain unless they say otherwise; changes in a name come on top. Residues count along the entry.
UniProt P08913: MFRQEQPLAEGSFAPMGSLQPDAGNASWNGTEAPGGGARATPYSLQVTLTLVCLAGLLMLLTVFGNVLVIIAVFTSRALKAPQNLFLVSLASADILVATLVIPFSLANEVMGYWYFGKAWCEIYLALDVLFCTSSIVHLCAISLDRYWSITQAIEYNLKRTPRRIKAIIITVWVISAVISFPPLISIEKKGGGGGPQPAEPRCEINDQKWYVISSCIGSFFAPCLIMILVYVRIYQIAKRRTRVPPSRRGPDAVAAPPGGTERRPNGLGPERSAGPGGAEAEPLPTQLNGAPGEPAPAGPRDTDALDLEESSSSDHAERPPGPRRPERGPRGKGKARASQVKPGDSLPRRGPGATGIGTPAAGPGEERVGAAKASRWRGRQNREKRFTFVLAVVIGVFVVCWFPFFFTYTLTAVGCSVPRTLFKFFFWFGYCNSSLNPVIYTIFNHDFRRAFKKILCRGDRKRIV
UniProt Q16602: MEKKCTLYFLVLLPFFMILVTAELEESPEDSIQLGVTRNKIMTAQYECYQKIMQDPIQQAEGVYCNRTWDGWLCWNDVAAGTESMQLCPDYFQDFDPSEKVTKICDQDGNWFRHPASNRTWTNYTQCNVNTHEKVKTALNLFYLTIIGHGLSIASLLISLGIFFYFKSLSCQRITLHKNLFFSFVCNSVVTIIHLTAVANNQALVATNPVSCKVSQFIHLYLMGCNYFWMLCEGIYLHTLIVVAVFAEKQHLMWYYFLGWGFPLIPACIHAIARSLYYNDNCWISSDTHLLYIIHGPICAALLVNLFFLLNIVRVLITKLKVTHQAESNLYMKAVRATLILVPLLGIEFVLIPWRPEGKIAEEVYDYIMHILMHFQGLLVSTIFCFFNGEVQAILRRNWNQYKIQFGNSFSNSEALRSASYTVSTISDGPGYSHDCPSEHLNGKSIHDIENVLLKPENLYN
UniProt O60894: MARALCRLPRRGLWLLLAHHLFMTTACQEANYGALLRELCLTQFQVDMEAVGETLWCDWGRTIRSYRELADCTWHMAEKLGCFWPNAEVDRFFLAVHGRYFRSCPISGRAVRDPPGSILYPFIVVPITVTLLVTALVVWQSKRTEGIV
UniProt P63096, residues 2-354: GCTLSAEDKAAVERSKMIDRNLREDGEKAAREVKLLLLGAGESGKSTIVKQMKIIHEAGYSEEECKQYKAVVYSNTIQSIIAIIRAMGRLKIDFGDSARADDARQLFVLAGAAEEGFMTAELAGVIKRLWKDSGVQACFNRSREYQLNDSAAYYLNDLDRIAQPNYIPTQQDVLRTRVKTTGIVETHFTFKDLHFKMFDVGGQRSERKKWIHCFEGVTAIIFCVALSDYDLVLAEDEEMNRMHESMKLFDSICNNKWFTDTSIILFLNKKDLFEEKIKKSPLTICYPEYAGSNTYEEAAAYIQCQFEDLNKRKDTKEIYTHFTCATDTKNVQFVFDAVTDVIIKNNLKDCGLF

Legend:
[1] = molecular target: α2AAR-Venus (human) (UniProt P08913); assay: BRET1 and BRET2 measured in the same cells (Gαi1-91Rluc, α2AAR-Venus, GFP10-Gγ2)
[2] = molecular target: CGRP-R (CRLR-YFP+RAMP1) (human) (UniProt Q16602+O60894); assay: BRET, living cells, 10 µM CGRP
[3] = molecular target: α2AAR-Venus (human) (UniProt P08913); assay: real-time BRET1, living cells
[4] = molecular target: α2AAR-GFP10 (human) (UniProt P08913); assay: BRET2, HEK293T cells, α-adrenergic ligands

Substance	binding [1]	binding [2]	binding [3]	binding [4]
Gαi1-91Rluc (from UniProt P63096 1-91; P27652 1-311; P63096 92-354)	binds	binds	binds	
Gαi1-122Rluc (from UniProt P63096 1-122; P27652 1-311; P63096 123-354)		binds	binds	
Gαi1-Rluc (from UniProt P63096 2-354)				binds
